This is one part of the list.
molecular target: T1, OsSMF1 (Oryza sativa, UniProt Q6ZLB0 1-436); assay: protein-binding microarray (RPBM); PBS, 2% BSA, 51.3 ng/ul salmon testes DNA, 50 uM zinc acetate, 200 nM TF, 25 C, 1 h; high values mean tight binding; conditions: protein: recombinant; tags: N-terminal polyhistidine and DsRed monomer fusion (pET32a); chain copies: 2; label: CyDye5-dUTP incorporated in the synthesized complementary strand; 3' TTTTT single-stranded linker to array surface; dsDNA, one strand shown
T1 sequence: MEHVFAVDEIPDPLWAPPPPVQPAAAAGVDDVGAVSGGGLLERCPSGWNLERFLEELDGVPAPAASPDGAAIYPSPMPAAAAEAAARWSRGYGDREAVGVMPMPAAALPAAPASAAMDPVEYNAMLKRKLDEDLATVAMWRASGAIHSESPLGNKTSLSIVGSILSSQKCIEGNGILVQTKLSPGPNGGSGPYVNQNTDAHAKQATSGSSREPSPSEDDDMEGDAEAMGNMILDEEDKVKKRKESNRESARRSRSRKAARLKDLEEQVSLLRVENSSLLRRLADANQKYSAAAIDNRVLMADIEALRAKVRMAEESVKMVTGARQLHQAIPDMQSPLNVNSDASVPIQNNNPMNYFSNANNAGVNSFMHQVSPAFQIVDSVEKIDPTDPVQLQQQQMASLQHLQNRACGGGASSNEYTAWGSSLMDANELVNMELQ
Summary of the method: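 Per-feature fluorescence intensity (arbitrary units), read on an Axon 4000B scanner, is the binding signal. Transcription factors carrying an N-terminal polyhistidine tag and DsRed fusion were expressed in E. coli BL21-CodonPlus and purified on Ni–NTA. A custom Agilent array, made double-stranded by primer extension with Cy5-dUTP and blocked with 2% BSA, was incubated with 200 nM protein in PBS, 2% BSA, salmon testes DNA and 50 µM zinc acetate at 25 °C for 1 h and then washed.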

| Sequence | binding signal |
| --- | --- |
| TTAGGTTTGAATGATTCAGTTTGTTGAGTCAGATGTACAGCGGAGTCACCTAGTGCAG | 4930 fluorescence intensity (a.u.) |
| GAACTAGTTGCGGAAACGACGTGACATACCTAACAAAATTCGGAGTCACCTAGTGCAG | 3760 fluorescence intensity (a.u.) |
| AGCTAGTACCTCACATGCATTCATCTTGCTTGCAATCCGTCGGAGTCACCTAGTGCAG | 45100 fluorescence intensity (a.u.) |
| ATCGACGGTGAGATTAGATACTGCTACGTGGCGATCTAAGCGGAGTCACCTAGTGCAG | 3830 fluorescence intensity (a.u.) |
| AACATGCCATCCCTAACTTTATCACTTATTATTACTAAGTCGGAGTCACCTAGTGCAG | 4110 fluorescence intensity (a.u.) |
| AAACGCAAATACCTACAACACGTGTGCACTCACCTCTTATCGGAGTCACCTAGTGCAG | 6160 fluorescence intensity (a.u.) |
| AAATCAGAATGCCTATTTGTCAAATTCTTGATTTCGTGTTCGGAGTCACCTAGTGCAG | 3160 fluorescence intensity (a.u.) |
| TCGTGTGCCTTCTAGGGCGAGCCCTACCACGTGGCGCGGCCGGAGTCACCTAGTGCAG | 14500 fluorescence intensity (a.u.) |
| AATTCGCTACTCTGAAACTCTGAACAAAATTTCAGAGGGACGGAGTCACCTAGTGCAG | 12900 fluorescence intensity (a.u.) |
| GGCAGCTATAAATCAGGAGAGGCGCTGTGTGTTAGCTCGTCGGAGTCACCTAGTGCAG | 21100 fluorescence intensity (a.u.) |
| AATCCCGTGCCGTTGCCCTGATGACGGGTCGGCCCCACAACGGAGTCACCTAGTGCAG | 4870 fluorescence intensity (a.u.) |
| GCAAATATTTGTCAGATAAATTGCAATTTGACACGTACCTCGGAGTCACCTAGTGCAG | 7150 fluorescence intensity (a.u.) |
| CGCTGCCACGCACACACACATCGTCTCGGCGACACACGCGCGGAGTCACCTAGTGCAG | 4680 fluorescence intensity (a.u.) |
| ATATATTAATAGCATGACACATCAATGCTAATAAGAGTTCCGGAGTCACCTAGTGCAG | 3490 fluorescence intensity (a.u.) |
| GGCATGGGTATGGGTCATCACTACCCATGCCCGCTTTGCCCGGAGTCACCTAGTGCAG | 4410 fluorescence intensity (a.u.) |
| TCTTGATGAATTTCAACCAAAAGCACGTCACTATATGCAACGGAGTCACCTAGTGCAG | 4900 fluorescence intensity (a.u.) |
| CGTGGCCAATAAGCTCCCGTGAGCTGACGTCTCGTGCTCGCGGAGTCACCTAGTGCAG | 4700 fluorescence intensity (a.u.) |
| CGGCTACAGAGGCAGAAGTGCACGCTGACCTCAGGTCGTGCGGAGTCACCTAGTGCAG | 3180 fluorescence intensity (a.u.) |
| GGGCATGTAGCCTGGTGGTTGCAGTCACCTGAGTAGTACCCGGAGTCACCTAGTGCAG | 3530 fluorescence intensity (a.u.) |
| AGAGCTAGGTAACGTACGTGTACGTCAGAGAATCTTGTTCCGGAGTCACCTAGTGCAG | 5680 fluorescence intensity (a.u.) |
| CTTTGGGTTGTGAGTAAGGCTTGGTGGGGCCCAGCTCACGCGGAGTCACCTAGTGCAG | 3550 fluorescence intensity (a.u.) |
| GTAACTGGGTGTTACGTACGTTACGTTGCACCTATCGCTTCGGAGTCACCTAGTGCAG | 3230 fluorescence intensity (a.u.) |
| GCTCCTCACACTCCTGACACGACTGGGCTTTCCTGCAGATCGGAGTCACCTAGTGCAG | 5890 fluorescence intensity (a.u.) |
| CCACGGGACAGGAAATTACCGGCCCTATCCACATCACTTCCGGAGTCACCTAGTGCAG | 4110 fluorescence intensity (a.u.) |
| TCCTGTAATGGTACAAAAGTTCAGAGGTTGTTGCATAACGCGGAGTCACCTAGTGCAG | 29900 fluorescence intensity (a.u.) |
| GGTATATATAGGAGTACATGGGGAGGAGATAAGGAAGGATCGGAGTCACCTAGTGCAG | 3150 fluorescence intensity (a.u.) |
| CCGCTGTGTCGCTGCTGCTGCCACCGCAGCTGCTGCGCCGCGGAGTCACCTAGTGCAG | 4590 fluorescence intensity (a.u.) |

| Sequence | binding signal |
| --- | --- |
| TGTAGACCAGCTCCTCCATTCCTTCCACGTGCTTGCCCCTCGGAGTCACCTAGTGCAG | 7090 fluorescence intensity (a.u.) |
| CGCGGCGCGTGGACCAGAGTAGTGTAGTGGAGTACCCAACCGGAGTCACCTAGTGCAG | 3970 fluorescence intensity (a.u.) |
| CCTGTGGCTTTATATAAACACCATGGTTGTCAGCAGTTCACGGAGTCACCTAGTGCAG | 4170 fluorescence intensity (a.u.) |
| ACAAATTATGATGTTTTCTAATGAACATCATCGCCTGGTTCGGAGTCACCTAGTGCAG | 3360 fluorescence intensity (a.u.) |
| CCTAGCTAAAGATCCGTGAAGTCGTGCTAAATGCTAGTACCGGAGTCACCTAGTGCAG | 3740 fluorescence intensity (a.u.) |
| TACGTGTGTTGATTTCCGTGACATATGCATAAATTTCTTTCGGAGTCACCTAGTGCAG | 3530 fluorescence intensity (a.u.) |
| GCCATCCACACCTTTCCCCGTCGGCGCTTAAATCCTCCCACGGAGTCACCTAGTGCAG | 3320 fluorescence intensity (a.u.) |
| GAAAAGCTGACTAATCTGACTTGCCTAAGAAACGCATTAGCGGAGTCACCTAGTGCAG | 3590 fluorescence intensity (a.u.) |
| AGTTTTGTGGATGGGTATAATGACGTTATAACAACGTTTTCGGAGTCACCTAGTGCAG | 3540 fluorescence intensity (a.u.) |
| TAGCTCGCTTGTCTACGTGCACCGAGTCCACGAGCACCCCCGGAGTCACCTAGTGCAG | 4180 fluorescence intensity (a.u.) |
| CGCTGAAATCCGCCGTGCACGTACACCGTCTTGTCGATCACGGAGTCACCTAGTGCAG | 3460 fluorescence intensity (a.u.) |
| CGGCGTTGCGCGTGCGCCACCTGTTATCCACCACCACTCCCGGAGTCACCTAGTGCAG | 3310 fluorescence intensity (a.u.) |
| AGAGTAGGATGACCTGGACAGGCTGACACGTGGGGCCCTTCGGAGTCACCTAGTGCAG | 10700 fluorescence intensity (a.u.) |
| ACCAACGGTACGCACGCGGAGAGCCCCGCGCGTAATTTGTCGGAGTCACCTAGTGCAG | 3790 fluorescence intensity (a.u.) |
| GCCACTCTCGTAATCTTACATAGTCATCATTATTCACACGCGGAGTCACCTAGTGCAG | 5470 fluorescence intensity (a.u.) |
| GCCCGCAGCTAAACCAGGTGACGTCGAACCCACACTCACCCGGAGTCACCTAGTGCAG | 4800 fluorescence intensity (a.u.) |
| ACGGCTGAGAGTCACCCTGATATTTGAGTCCCGTTCGATCCGGAGTCACCTAGTGCAG | 3490 fluorescence intensity (a.u.) |
| CCCCGTCCACGTCCACCCCTCGCCGTCGTCAAAGCGCGGCCGGAGTCACCTAGTGCAG | 6860 fluorescence intensity (a.u.) |
| ATCTCACACGTTGCTCATCATGTCGTCACACTCTCCAGCTCGGAGTCACCTAGTGCAG | 6030 fluorescence intensity (a.u.) |
| GGGAGGGGAGTGAGAATGACATGTGGGACTTACGTGGGTCCGGAGTCACCTAGTGCAG | 5280 fluorescence intensity (a.u.) |
| CCGGCGCGGTGAAGGAGACGTGGCCGGTGGCTGGGCAGCGCGGAGTCACCTAGTGCAG | 3220 fluorescence intensity (a.u.) |
| GACAAACTGACACGGTGACAGTATAAGGGGCTCGCATCCGCGGAGTCACCTAGTGCAG | 3590 fluorescence intensity (a.u.) |
| CGATCGGTGTTCCACGGTGAGTGTTAGTTTCTCTTTGTGCCGGAGTCACCTAGTGCAG | 13500 fluorescence intensity (a.u.) |
| TGTCCAGCAGCCTCCCACAACTCCGCTCTCACCATCACCCCGGAGTCACCTAGTGCAG | 32400 fluorescence intensity (a.u.) |
| GAGAGAATCTTGGAACGATTAGTAGTACATAAAGTAGAATCGGAGTCACCTAGTGCAG | 3650 fluorescence intensity (a.u.) |
| GAGGGCCACGTGGCGCCTGGGGCAACCCTCTCCCTCTAGTCGGAGTCACCTAGTGCAG | 17300 fluorescence intensity (a.u.) |
| CGCGGCAAGGTCGGCTGCCAGAGAGCGCGCGTGAAGGGGACGGAGTCACCTAGTGCAG | 24800 fluorescence intensity (a.u.) |

A different layout for part of the listing above:
Sequence	binding signal
GACAAACTGACACGGTGACAGTATAAGGGGCTCGCATCCGCGGAGTCACCTAGTGCAG	3590 fluorescence intensity (a.u.)
CGATCGGTGTTCCACGGTGAGTGTTAGTTTCTCTTTGTGCCGGAGTCACCTAGTGCAG	13500 fluorescence intensity (a.u.)
